Drawing on PMC7577436, this text covers binding for three molecules.

Results are given in words; binding and its absence hold for the method and conditions named. In cells and extracts the contact can be indirect. Some entries that bind do so weakly or less than the wild type.

Assay [1] has as its target T1, p120 catenin (human (endogenous in HeLa)) (UniProt O60716).
T1 sequence: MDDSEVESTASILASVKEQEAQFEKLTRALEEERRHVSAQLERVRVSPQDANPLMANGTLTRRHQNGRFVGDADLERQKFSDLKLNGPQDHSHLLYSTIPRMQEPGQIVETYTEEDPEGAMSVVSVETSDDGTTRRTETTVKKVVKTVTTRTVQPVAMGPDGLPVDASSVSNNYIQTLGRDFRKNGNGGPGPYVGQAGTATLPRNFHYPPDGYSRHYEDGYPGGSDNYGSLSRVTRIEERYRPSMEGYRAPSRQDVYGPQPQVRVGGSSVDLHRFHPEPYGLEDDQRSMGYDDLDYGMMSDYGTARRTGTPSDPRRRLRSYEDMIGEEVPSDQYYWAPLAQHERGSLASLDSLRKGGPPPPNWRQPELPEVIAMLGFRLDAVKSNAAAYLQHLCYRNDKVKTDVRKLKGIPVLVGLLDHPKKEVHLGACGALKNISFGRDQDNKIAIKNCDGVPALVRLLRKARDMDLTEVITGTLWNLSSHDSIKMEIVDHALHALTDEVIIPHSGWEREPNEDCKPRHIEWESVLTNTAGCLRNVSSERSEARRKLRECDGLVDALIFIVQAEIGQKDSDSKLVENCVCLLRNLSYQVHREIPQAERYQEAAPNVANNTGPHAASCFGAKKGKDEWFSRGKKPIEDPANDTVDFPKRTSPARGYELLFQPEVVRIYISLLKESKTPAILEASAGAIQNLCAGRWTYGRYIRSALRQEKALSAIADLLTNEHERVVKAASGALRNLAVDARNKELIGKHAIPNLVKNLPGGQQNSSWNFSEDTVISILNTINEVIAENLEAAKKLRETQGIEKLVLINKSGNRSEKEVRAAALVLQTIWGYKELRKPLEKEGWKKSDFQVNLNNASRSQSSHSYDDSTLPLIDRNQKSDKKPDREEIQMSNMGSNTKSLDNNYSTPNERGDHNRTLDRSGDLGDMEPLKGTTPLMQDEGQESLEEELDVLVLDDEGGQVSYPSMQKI
Description: co-IP; HeLa cells infected with HPV16.L2F (Luc) or HPV16 L1 VLP for 2.5 hrs, lysed in 1% DMNG in HN buffer; antibody against p120, protein G Dynabeads; immunoblot.

Assay [2] addresses HPV16 L2 minor capsid protein with a C-terminal 3xFLAG tag, in the pseudovirus WT HPV16.L2F (HPV16) (UniProt P03107). Description: condition: only 7–10 hpi and later (not detected by immunoblotting at 16 hpi); co-IP; as a2, FLAG immunoprecipitation of L2 at late time points of the time course (7–10 hpi and 16 hpi); immunoblot for p120. For orientation: Immunoblotting shows a protein as a band on a membrane.

The target is the same in assay [3]. Description: co-IP; HeLa cells infected with WT HPV16.L2F (Luc) (6 hrs in Fig 1B; time course in Fig 3), lysed in 1% DMNG in HN buffer; FLAG M2 antibody overnight at 4°C, protein G Dynabeads; immunoblot.

For “HPV16 L1 VLP (virus-like particles containing L1 only) (from UniProt P03101 1-505)”, the binding result in assay [1] was “binds”.
For “HPV16 L1 major capsid protein in the pseudovirus WT HPV16.L2F (from UniProt P03101 1-505)”, in assay [1], the binding result is “binds”.

B1: p120 catenin (protein, UniProt O60716 1-968)
chain: T1 sequence
Consider B1, for which the binding entry in assay [2] was “no binding”; in assay [3] it was “binds”.
